Experimental data reported in publication PMC9281121.
Residue numbers refer to the chain shown, from its start. These are yes or no findings as the source states them, for the method shown. In cells and extracts the contact can be indirect. Some results given as binding are weak or reduced against the parent protein; the word gives no strength. Where a sequence is shown, tags or fusion partners need not be part of it.

Sequences of proteins named here, by UniProt entry; tags and fusion partners are left off.
UniProt O43791: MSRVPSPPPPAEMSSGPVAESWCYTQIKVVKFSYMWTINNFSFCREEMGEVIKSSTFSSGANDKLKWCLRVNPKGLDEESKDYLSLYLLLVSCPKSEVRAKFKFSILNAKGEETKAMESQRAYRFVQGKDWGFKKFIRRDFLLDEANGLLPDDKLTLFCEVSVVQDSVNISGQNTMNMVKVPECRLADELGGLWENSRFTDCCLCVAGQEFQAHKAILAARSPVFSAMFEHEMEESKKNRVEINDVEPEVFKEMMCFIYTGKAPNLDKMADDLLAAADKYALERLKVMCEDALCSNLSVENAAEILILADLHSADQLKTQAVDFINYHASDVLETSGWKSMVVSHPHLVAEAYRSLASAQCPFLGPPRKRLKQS

How the values were obtained:
[1] = target: T1, Chromobox protein homolog 6 (CBX6), wild type, HA-tagged (UniProt O95503); experiment: co-IP; Myc-SPOP and wild-type or mutated HA-CBX6 transfected into HEK293T; lysates in Sucrose-NP40 lysis buffer (25 mM Tris-Cl pH 7.5, 150 mM NaCl, 0.5% NP40) incubated with anti-HA agarose beads 4 h in the cold room; Western blot with anti-HA and anti-SPOP
T1 sequence: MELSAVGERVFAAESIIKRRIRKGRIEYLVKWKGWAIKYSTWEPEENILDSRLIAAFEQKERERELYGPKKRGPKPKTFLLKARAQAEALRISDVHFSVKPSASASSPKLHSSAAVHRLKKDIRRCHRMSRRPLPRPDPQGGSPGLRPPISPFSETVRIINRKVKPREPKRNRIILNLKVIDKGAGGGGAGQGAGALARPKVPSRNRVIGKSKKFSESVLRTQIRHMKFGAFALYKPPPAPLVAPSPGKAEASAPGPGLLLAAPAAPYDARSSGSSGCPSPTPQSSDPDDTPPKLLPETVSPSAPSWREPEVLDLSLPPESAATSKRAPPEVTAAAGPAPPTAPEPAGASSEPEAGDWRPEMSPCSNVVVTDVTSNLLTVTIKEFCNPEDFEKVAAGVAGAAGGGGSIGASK

[2] = target: T2, Chromobox protein homolog 6 (CBX6), mutated (DARSS to DARAA), HA-tagged (UniProt O95503); experiment: as above
T2 sequence: T1 sequence with S272A, S273A

Substance: SPOP, Myc-tagged (from UniProt O43791 1-374)
- binding [1]: binds
- binding [2]: binds
